Laboratory results reported in US20200270125A1.
Changes are numbered by the printed parent chain. Like-named read-outs stand apart in the source and are kept apart here. Results are given in words; binding and its absence hold for the method and conditions named. Some entries that bind do so weakly or less than the wild type. Each block holds one binder with its values, some of them ahead of it.

Legend:
[1] = target: human MASP-3 (construct not stated) (human); assay: DTLacO screen
[2] = target: human MASP-3 (construct not stated) (human)
[3] = target: human MASP-3 (construct not stated) (human); assay: FACS histogram of DTLacO cells displaying clone M3M1, stained with MASP-3 antigen; grey filled curve is the IgG1-stained negative control
[4] = target: human MASP-3 (construct not stated) (human); assay: FACS, DTLacO cells stained with labelled MASP-3
[5] = target: human MASP-3 (construct not stated) (human); remark: listed apart in the source
[6] = target: recombinant rat MASP-3 (rat); assay: cross-species binding experiments
[7] = target: recombinant cynomolgus monkey MASP-3 (cynomolgus monkey); assay: cross-species binding experiments
[8] = target: recombinant rat MASP-3 (rat); assay: cross-species binding, ranking of Fab binding
[9] = target: recombinant cynomolgus monkey MASP-3 (cynomolgus monkey); assay: cross-species binding, ranking of Fab binding
[10] = target: human MASP-3 (construct not stated) (human); assay: cross-species binding, ranking of Fab binding
[11] = target: human MASP-3 (construct not stated) (human); assay: FACS histogram of DTLacO cells displaying clone M3J5, stained with MASP-3 antigen; grey filled curve is the IgG1-stained negative control
[12] = target: human MASP-3 (construct not stated) (human); assay: saturation binding by flow cytometry: DTLacO cells expressing the antibody stained with various concentrations of fluorescent-labeled soluble MASP-3 antigen

B4: 13B1 Parental Fab (Fab, V domains shown)
VH: QVQLKQSGAELMKPGASVKLSCKATGYTFTGKWIEWVKQRPGHGLEWIGEILPGTGSTNYNEKFKGKATFTADSSSNTAYMQLSSLTTEDSAMYYCLRSEDVWGTGTTVTVSS
VL: DIVMTQSPSSLAVSAGEKVTMSCKSSQSLLNSRTRKNYLAWYQQKPGQSPKLLIYWASTRESGVPDRFTGSGSGTDFTLTISSVQAEDLAVYYCKQSYNIPTFGGGTKLEIKR
binding [6]: binds | binding [7]: binds | binding [8]: binds | binding [9]: binds | binding [10]: binds

B5: 4D5 Parental Fab (Fab, V domains shown)
VH: QVQLKQSGPELVKPGASVKLSCKASGYTFTTDDINWVKQRPGQGLEWIGWIYPRDDRTKYNDKFKDKATLTVDTSSNTAYMDLHSLTSEDSAVYFCSSLEDTYWGQGTLVAVSS
VL: B4 VL with S22T, T78S, I100L, P101Y
binding [6]: binds | binding [7]: binds | binding [8]: binds | binding [9]: binds | binding [10]: binds

Further lines, results first:

binding [1]: binds | binding [2]: binds | binding [3]: binds | binding [4]: binds
B1: MASP-3 specific clone M3M1 (antibody, V domains shown)
VH: AVTLDESGGGLQTPGGGLSLVCKASGFDFSSYQMNWIRQAPGKGLEFVAAINRFGNSTGHGAAVKGRVTISRDDGQSTVRLQLSNLRAEDTATYYCAKGVYGYCGSYSCCGVDTIDAWGHGTEVIVSS
VL: ALTQPASVSANPGETVKITCSGGGSYAGSYYYGWYQQKAPGSAPVTLIYYNNKRPSDIPSRFSGSLSGSTNTLTITGVRADDEAVYFCGSADNSGAAFGAGTTLTVL

binding [1]: binds
B2: MASP-1 clone 1E10 (antibody, human IgG1, V domains shown)
VH: AVTLDESGGGLQTPGGALSLVCKASGFTFSSYDMVWVRQAPGKGLEFVAGISRNDGRYTEYGSAVKGRATISRDNGQSTVRLQLNNLRAEDTATYYCARDAGGSAYWFDAGQIDAWGHGTEVIVSS
VL: B1 VL

binding [1]: binds | binding [5]: binds
B3: MASP-3 clone D14 (antibody, human IgG1, V domains shown)
VH: AVTLDESGGGLQTPGGALSLVCKASGFTFSSYAMHWVRQAPGKGLEWVAGIYKSGAGTNYAPAVKGRATISRDNGQSTVRLQLNNLRAEDTGTYYCAKTTGSGCSSGYRAEYIDAWGHGTEVIVSS
VL: B1 VL

binding [1]: binds | binding [4]: binds | binding [11]: binds | binding [12]: binds
B6: MASP-3 specific clone M3J5 (antibody, V domains shown)
VH: AVTLDESGGGLQTPGGGLSLVCKASGFTFSSYAMGWMRQAPGKGLEYVAGIRSDGSFTLYATAVKGRATISRDNGQSTVRLQLNNLRAEDTATYFCTRSGNVGDIDAWGHGTEVIVSS
VL: ALTQPASVSANPGETVKITCSGGYSGYAGSYYYGWYQQKAPGSAPVTLIYYNNKRPSDIPSRFSGSLSGSTNTLTITGVRADDEAVYFCGSADNSGAAFGAGTTLTVL
